{"source": "the supplement of paper PMC12889115", "tested_on": "Salmonella enterica serovar Typhimurium SL1344", "test": "bacterial growth OD600 after 18 h with compound and polymyxin B; higher = more bacterial growth (less inhibition)", "details": "50 µM, Mueller-Hinton broth", "note": "The list shows a part of the results. These are raw signals, not scaled to a control.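 In the initial screen, polymyxin B was used at a concentration that permeabilizes Salmonella's outer membrane but not its inner membrane. Maximum growth was set by DMSO wells with or without polymyxin B. Since plates varied, data were ranked per plate, and compounds giving the lowest OD600 advanced as hits.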"}
{"smiles": "CCCS(=O)(=O)NC1CC(=O)N(CCc2ccccc2)C1", "note": "(stereo not given)", "values": [{"measurement": "bacterial growth OD600", "setting": "polymyxin B 1 µg/mL", "value": 0.889}]}
{"smiles": "CCOC(=O)N1CCC(N2CC[C@@H](N(C)CCc3ccccn3)[C@H](O)C2)CC1", "values": [{"measurement": "bacterial growth OD600", "setting": "polymyxin B 0.75 µg/mL", "value": 0.886}]}
{"smiles": "CN(C)C(=O)C1CCCN(C2CCN(C3Cc4ccccc4C3)CC2)C1", "note": "(stereo not given)", "values": [{"measurement": "bacterial growth OD600", "setting": "polymyxin B 0.75 µg/mL", "value": 0.913}]}
{"smiles": "CN(Cc1nccn1C)C(=O)c1csc2nc(-c3ccc(C(F)(F)F)cc3)cn12", "values": [{"measurement": "bacterial growth OD600", "setting": "polymyxin B 1 µg/mL", "value": 0.81}]}
{"smiles": "COc1ccc(CNC(=O)CCC2CCCN(Cc3ccc(C)s3)C2)c(OC)c1", "note": "(stereo not given)", "values": [{"measurement": "bacterial growth OD600", "setting": "polymyxin B 0.75 µg/mL", "value": 0.814}]}
{"smiles": "CN(Cc1ccon1)c1ccc(-c2nc(Cc3ccc(F)cc3)no2)cn1", "values": [{"measurement": "bacterial growth OD600", "setting": "polymyxin B 0.75 µg/mL", "value": 0.001}]}
{"smiles": "O=C(c1ccc(N2CCC(NCCC(c3ccccc3)c3ccco3)CC2)cc1)N1CCOCC1", "note": "(stereo not given)", "values": [{"measurement": "bacterial growth OD600", "setting": "polymyxin B 0.75 µg/mL", "value": 0.905}]}
{"smiles": "COCCN1C(=O)NC(Cc2ccc(F)cc2)(C2CCN(C(=O)C3Cc4ccccc4O3)CC2)C1=O", "note": "(stereo not given)", "values": [{"measurement": "bacterial growth OD600", "setting": "polymyxin B 0.75 µg/mL", "value": 0.754}]}
{"smiles": "Cc1ccc2c(C)c(C(=O)N(Cc3ccccn3)C[C@@H]3CCC(=O)N3)oc2c1C", "values": [{"measurement": "bacterial growth OD600", "setting": "polymyxin B 0.75 µg/mL", "value": 0.735}]}
{"smiles": "O=C(c1cccc2ccccc12)C1CCCN(C(=O)c2ccc3c(c2)OCO3)C1", "note": "(stereo not given)", "values": [{"measurement": "bacterial growth OD600", "setting": "polymyxin B 1 µg/mL", "value": 0.005}]}
{"smiles": "C=C(C)CN(C)c1ccc(C(=O)N2CCCCC2CCn2cccn2)cn1", "note": "(stereo not given)", "values": [{"measurement": "bacterial growth OD600", "setting": "polymyxin B 1 µg/mL", "value": 0.625}]}
{"smiles": "COc1ccc(C(CC(=O)N(C)Cc2cc(C)no2)c2ccccc2)cc1", "note": "(stereo not given)", "values": [{"measurement": "bacterial growth OD600", "setting": "polymyxin B 1 µg/mL", "value": 0.72}]}
{"smiles": "Cc1n[nH]cc1C(=O)NC1CC(C)(C)Cc2nc(C(C)(C)C)ncc21", "note": "(stereo not given)", "values": [{"measurement": "bacterial growth OD600", "setting": "polymyxin B 1 µg/mL", "value": 0.923}]}
{"smiles": "CN1CCC(CN(CCc2ccccc2)Cc2ccccc2F)CC1", "values": [{"measurement": "bacterial growth OD600", "setting": "polymyxin B 1 µg/mL", "value": 0.747}]}
{"smiles": "O[C@@H]1CN(C/C=C/c2ccco2)CC[C@H]1N1CCN(c2ccccn2)CC1", "values": [{"measurement": "bacterial growth OD600", "setting": "polymyxin B 1 µg/mL", "value": 0.892}]}
{"smiles": "O=C(CCC(=O)c1ccccc1)Nc1cnn(CC(=O)N2CCC(OCc3ccccc3)CC2)c1", "values": [{"measurement": "bacterial growth OD600", "setting": "polymyxin B 0.75 µg/mL", "value": 0.749}]}
{"smiles": "COc1ccc(C(=O)N2CCCC2)c(OC2CCN(CC(C)c3ccccc3)CC2)c1", "note": "(stereo not given)", "values": [{"measurement": "bacterial growth OD600", "setting": "polymyxin B 1 µg/mL", "value": 0.907}]}
{"smiles": "O=C(N[C@H]1CCCCNC1=O)c1coc(COc2cccc(C(F)(F)F)c2)n1", "values": [{"measurement": "bacterial growth OD600", "setting": "polymyxin B 1 µg/mL", "value": 0.916}]}
{"smiles": "CCCC(=O)NC1CC(C)(C)Cc2nc(N3CCOCC3)ncc21", "note": "(stereo not given)", "values": [{"measurement": "bacterial growth OD600", "setting": "polymyxin B 1 µg/mL", "value": 0.881}]}
{"smiles": "CC(NC(=O)c1cc(Cl)ccc1OC1CCN(C2CCCC2)CC1)c1ccncn1", "note": "(stereo not given)", "values": [{"measurement": "bacterial growth OD600", "setting": "polymyxin B 1 µg/mL", "value": 1.02}]}
